Results published in PubChem BioAssay AID248 (DTP/NCI, 2004).
The list shows only some results of the screen, not a fair sample: it gathers tests that were run many times, whatever their T/C, doses with no T/C, and many T/C values between a quarter and a half above the control. Further doses and runs are listed elsewhere. T/C gives the treated animals as a percentage of the vehicle group. Some entries give survivors of the animals treated and no T/C: the source files T/C as zero there, which appears to mark a toxic dose or a test without result, not a measured value. Some doses without a T/C left all or most animals alive at the check, yet need not have been tolerated: the source hardly ever lists a survival T/C far under the control, and the zero likely stands for such cases as well. Counts of survivors are from the toxicity check (mostly the fifth day) where no day follows; animals may have died later. Schedules are NCI's codes, read here as Q, the interval in days (D) or hours (H), X, the number of doses. Some doses were run more than once; the values are given in rising order. Where survival is the endpoint, this PubChem deposit counts one and a half times the control or more as active, and values a quarter to a half above the control carry no call in these data; other NCI protocols may use other cut-offs. Some schedule codes hold Z or #, which are not explained here.

System: L1210 leukemia ip in BDF1 mice, survival T/C
Test: NCI In Vivo Anticancer Drug Screen. Data for tumor model L1210 Leukemia (intraperitoneal) in B6D2F1 (BDF1) mice
Details: T/C endpoint: mean survival time, higher T/C = longer survival
[1] = dose: 100.0 mg/kg/injection, schedule: Q04DX002 (ip), vehicle: Klucel (hydroxypropylcellulose) (HPC)
[2] = dose: 200.0 mg/kg/injection, schedule: Q04DX002 (ip), vehicle: Klucel (hydroxypropylcellulose) (HPC)
[3] = dose: 400.0 mg/kg/injection, schedule: Q04DX002 (ip), vehicle: Klucel (hydroxypropylcellulose) (HPC)
[4] = dose: 100.0 mg/kg/injection, schedule: Q01DX001 (ip), vehicle: saline
[5] = dose: 200.0 mg/kg/injection, schedule: Q01DX001 (ip), vehicle: saline
[6] = dose: 400.0 mg/kg/injection, schedule: Q01DX001 (ip), vehicle: saline
[7] = dose: 200.0 mg/kg/injection, schedule: Q01DX009 (ip), vehicle: Klucel (hydroxypropylcellulose) (HPC)
[8] = dose: 400.0 mg/kg/injection, schedule: Q01DX009 (ip), vehicle: Klucel (hydroxypropylcellulose) (HPC)
[9] = dose: 200.0 mg/kg/injection, schedule: Q04DX003 (ip), vehicle: Klucel (hydroxypropylcellulose) (HPC)
[10] = dose: 400.0 mg/kg/injection, schedule: Q04DX003 (ip), vehicle: Klucel (hydroxypropylcellulose) (HPC)
[11] = dose: 200.0 mg/kg/injection, schedule: Q01DX001 (ip), vehicle: saline with Tween-80
[12] = dose: 50.0 mg/kg/injection, schedule: Q04DX003 (ip), vehicle: saline
[13] = dose: 100.0 mg/kg/injection, schedule: Q04DX003 (ip), vehicle: saline
[14] = dose: 200.0 mg/kg/injection, schedule: Q04DX003 (ip), vehicle: saline
[15] = dose: 400.0 mg/kg/injection, schedule: Q04DX003 (ip), vehicle: saline
[16] = dose: 512.0 mg/kg/injection, schedule: Q01DX001 (ip), vehicle: saline

`CC12CC3CC(C)(C1)CC(SCCCCCN=C(N)CSSCC(N)=NCCCCCSC14CC5CC(C)(CC(C)(C5)C1)C4)(C3)C2` was tested, and the survivor count [1] was 0 of 3, the survivor count [2] was 1 of 3 and the survivor count [3] was 1 of 3.

In the case of `O=C(Nc1ccccc1C(=O)N/N=C/c1c(O)ccc2ccccc12)c1ccccc1Cl`, the survivor count [2] is reported as 3 of 3.

`CC(c1ccccc1)N1C(=O)CSC1=S` (stereo not given) was tested, and the survivor count (dose: 400.0 mg/kg/injection, schedule: Q04DX002 (ip), vehicle: saline with Tween-80) was 3 of 3.

`O=N[O-].O=N[O-].[Co].[NH-]CCN(CC[NH-])CC[NH-]` was tested, and the survivor count [4] was 0 of 4, the survivor count [5] was 0 of 4 and the survivor count [6] was 0 of 4.

`CN(CCC(C#N)c1ccccc1)C(=O)c1ccccc1` (stereo not given) was tested, and the survivor count (dose: 300.0 mg/kg/injection, schedule: Q01DX001 (ip), vehicle: saline) was 0 of 6.

`C/C1=C/CCCCCC1` was tested, and the survivor count [6] was 4 of 4.

For `O=Cc1cc([N+](=O)[O-])cc(CCl)c1O`, the survivor count [7] was 5 of 6 and the survivor count [8] was 0 of 6.

In the case of `CCC(C)(C)c1ccc(O)c(C(=O)O)c1`, the survivor count (dose: 400.0 mg/kg/injection, schedule: Q01DX001 (ip), vehicle: carboxymethylcellulose (CMC)) is reported as 1 of 4.

In the case of `CCCCCC(=O)N1CCCCC1CC` (stereo not given), the survivor count [3] is reported as 3 of 3.

For `Cc1nc2nc(Cl)c(Cl)nc2[nH]1`, the survivor count [9] was 3 of 6 and the survivor count [10] was 0 of 6.

In the case of `O=C(COc1cc(Cl)c(Cl)cc1Cl)NO`, the survivor count [10] is reported as 2 of 6.

For `Clc1ncnc2c1ncn2C1CCCCO1` (stereo not given), the T/C (dose: 125.0 mg/kg/injection, schedule: Q01DX Z (ip), vehicle: other) was 129 % of control and the T/C (dose: 250.0 mg/kg/injection, schedule: Q01DX Z (ip), vehicle: other) was 129 % of control.

In the case of `CC(C)C(C#N)(CCN1CCCCC1)c1cccc2ccccc12` (stereo not given), the survivor count [7] is reported as 3 of 6 and the survivor count [8] is reported as 0 of 6.

With `OC(COc1ccc(Cl)cc1)COc1ccc(Cl)cc1` the survivor count [11] was 3 of 3 and the survivor count (dose: 400.0 mg/kg/injection, schedule: Q01DX001 (ip), vehicle: saline with Tween-80) was 3 of 3.

For `CC12CC3CC(C)(C1)CC(CN=C(N)CS)(C3)C2`, the survivor count (dose: 10.0 mg/kg/injection, schedule: Q04DX002 (ip), vehicle: Klucel (hydroxypropylcellulose) (HPC)) was 1 of 3, the survivor count (dose: 20.0 mg/kg/injection, schedule: Q04DX002 (ip), vehicle: Klucel (hydroxypropylcellulose) (HPC)) was 3 of 3 and the survivor count (dose: 40.0 mg/kg/injection, schedule: Q04DX002 (ip), vehicle: Klucel (hydroxypropylcellulose) (HPC)) was 1 of 3. The survivor count [1] was 0 of 3, the survivor count [2] was 0 of 3 and the survivor count [3] was 0 of 3.

For `NC(CCl)=NCC12CC3CC(CC(C3)C1)C2`, the survivor count [1] was 1 of 3 and the survivor count [3] was 0 of 3.

`Cc1cc(SC#N)ncn1` was tested, and the survivor count (dose: 20.0 mg/kg/injection, schedule: Q01DX001 (ip), vehicle: saline) was 0 of 4, the survivor count (dose: 40.0 mg/kg/injection, schedule: Q01DX001 (ip), vehicle: saline) was 0 of 4 and the survivor count (dose: 50.0 mg/kg/injection, schedule: Q01DX001 (ip), vehicle: saline) was 0 of 4. The survivor count (dose: 80.0 mg/kg/injection, schedule: Q01DX001 (ip), vehicle: saline) was 0 of 4, the survivor count [4] was 0 of 4 and the survivor count [5] was 0 of 4. The survivor count [6] was 0 of 4.

In the case of `CCCCCCCCCCNC(=O)C[n+]1cccc(C(=O)NC)c1`, the survivor count [12] is reported as 5 of 6.

With `OC1CCc2c(Cl)sc(Cl)c21` (stereo not given) the survivor count (dose: 100.0 mg/kg/injection, schedule: Q01DX001 (ip), vehicle: saline with Tween-80) was 0 of 3 and the survivor count [11] was 1 of 3.

`S=C(Nc1ccccc1)NC1CCC(CC2CCCCC2)CC1` (stereo not given) was tested, and the survivor count (dose: 300.0 mg/kg/injection, schedule: Q01DX009 (ip), vehicle: Klucel (hydroxypropylcellulose) (HPC)) was 3 of 6 and the survivor count [10] was 3 of 6.

In the case of `COc1ccc(NCC(O)CN2CCCCC2)cc1` (stereo not given), the survivor count [5] is reported as 2 of 6 and the survivor count [6] is reported as 0 of 6.

For `O=C1NC(=O)C2(CCCCC2)N1`, the survivor count (dose: 50.0 mg/kg/injection, schedule: Q01DX009 (ip), vehicle: Klucel (hydroxypropylcellulose) (HPC)) was 2 of 6, the survivor count (dose: 100.0 mg/kg/injection, schedule: Q01DX009 (ip), vehicle: Klucel (hydroxypropylcellulose) (HPC)) was 0 of 6 and the survivor count (dose: 100.0 mg/kg/injection, schedule: Q04DX003 (ip), vehicle: Klucel (hydroxypropylcellulose) (HPC)) was 5 of 6 and 6 of 6. For the same compound, the survivor count [13] was 4 of 6, the survivor count (dose: 115.0 mg/kg/injection, schedule: Q01DX009 (ip), vehicle: Klucel (hydroxypropylcellulose) (HPC)) was 6 of 6 and the survivor count (dose: 170.0 mg/kg/injection, schedule: Q01DX009 (ip), vehicle: Klucel (hydroxypropylcellulose) (HPC)) was 0 of 6. The survivor count [7] was 0 of 6, the survivor count [9] was 5 of 6 and the survivor count [14] was 0 of 6. The survivor count [10] was 0 of 6 and the survivor count [15] was 0 of 6.

For `C[N+]1(C)CCC(OC(=O)C(O)(c2ccccc2)C2CCCC2)C1` (stereo not given), the survivor count (dose: 200.0 mg/kg/injection, schedule: Q04DX003 (ip), vehicle: saline with Tween-80) was 0 of 3 and the survivor count (dose: 400.0 mg/kg/injection, schedule: Q04DX003 (ip), vehicle: saline with Tween-80) was 0 of 3.

In the case of `CS(=O)(=O)OCCN(CCOS(C)(=O)=O)c1cccc([N+](=O)[O-])c1`, the survivor count (dose: 228.0 mg/kg/injection, schedule: Q01DX001 (ip), vehicle: saline) is reported as 3 of 6, the T/C [16] is reported as 131 % of control and the survivor count [16] is reported as 4 of 6. For the same compound, the survivor count (dose: 512.0 mg/kg/injection, schedule: Q01DX015 (ip), vehicle: saline) was 5 of 6 and the survivor count (dose: 768.0 mg/kg/injection, schedule: Q01DX015 (ip), vehicle: saline) was 6 of 6.

`Nc1cccc(Cl)c1` was tested, and the survivor count [10] was 2 of 6.

For `O=C(CC(CC(=O)c1ccccc1)c1ccncc1)c1ccccc1`, the survivor count (dose: 100.0 mg/kg/injection, schedule: Q01DX001 (ip), vehicle: carboxymethylcellulose (CMC)) was 4 of 4.

With `COc1cc([N+](=O)[O-])ccc1NC(=O)Nc1cc(C)ccn1` the survivor count [8] was 4 of 6.

`CCCCCCCCCCCCNC(=O)c1ccc[n+](Cc2ccccc2)c1` was tested, and the survivor count (dose: 20.0 mg/kg/injection, schedule: Q01DX009 (ip), vehicle: saline) was 0 of 6 and the survivor count (dose: 20.0 mg/kg/injection, schedule: Q04DX003 (ip), vehicle: saline sonified) was 5 of 6.

In the case of `CCCN(/C=C/C=C/C=[N+](CCC)CCC)CCC`, the survivor count (dose: 0.19 mg/kg/injection, schedule: Q04DX003 (ip), vehicle: saline) is reported as 1 of 6, the survivor count (dose: 0.39 mg/kg/injection, schedule: Q04DX003 (ip), vehicle: saline) is reported as 0 of 6 and the survivor count (dose: 0.78 mg/kg/injection, schedule: Q04DX003 (ip), vehicle: saline) is reported as 0 of 6. The survivor count (dose: 1.56 mg/kg/injection, schedule: Q04DX003 (ip), vehicle: saline) was 0 of 6, the survivor count (dose: 3.13 mg/kg/injection, schedule: Q04DX003 (ip), vehicle: saline) was 0 of 6 and the survivor count (dose: 6.25 mg/kg/injection, schedule: Q04DX003 (ip), vehicle: saline) was 0 of 6. For the same compound, the survivor count (dose: 12.5 mg/kg/injection, schedule: Q04DX003 (ip), vehicle: saline) was 2 of 6, the survivor count (dose: 25.0 mg/kg/injection, schedule: Q04DX003 (ip), vehicle: saline) was 1 of 6 and the survivor count [12] was 0 of 6. For the same compound, the survivor count [13] was 0 of 6, the survivor count [14] was 0 of 6 and the survivor count [15] was 0 of 6.
